In PubChem BioAssay AID2417 (National Center for Advancing Translational Sciences (NCATS), 2010):
About 4,300 (3.1%) of roughly 140,000 compounds were called active. The shares of active, inactive and inconclusive entries below differ from those in the screen.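 The calls were made as follows: active = readout at or below -70, meaning at least 70% loss of cells showing the perinucleolar compartment, a nuclear body marking cancer cells; inconclusive = readout between -30 and a set limit; inactive = the rest.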

Test: High Content Assay for Compounds that inhibit the Assembly of the Perinucleolar Compartment;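 also: plate controls were DMSO wells for no effect and camptothecin positive control wells for full effect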
Conditions: PC3M PTB-GFP, PNC prevalence imaging, 16 h; at 10 µM; stronger effect = lower value
Summary of the method: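 Compounds are pinned in duplicate onto adhered PC3M cells stably expressing GFP-tagged PTB and incubated 16 h at 37 C. Cells are then fixed, nuclei stained with Hoechst, and PNC-positive cells counted.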

Row | Structure (SMILES) | activity change (PNC), negative = inhibition
1 | Cn1c(=O)[nH]c(NC2CCCCC2)c([N+](=O)[O-])c1=O | inconclusive: -36.6%
2 | Cc1ccc(NC(=O)CCCCCN2C(=O)c3ccccc3C2=O)nc1 | inconclusive: -41.2%
3 | COc1ccc(OC)c(C2C(C(C)=O)=C(O)C(=O)N2Cc2cccnc2)c1 (stereo not given) | inactive: -25.8%
4 | CCCCn1c(SCC(=O)c2ccc(OC)cc2OC)nc2cc(S(N)(=O)=O)ccc21 | inconclusive: -30.3%
5 | Cc1cc(C)nc(-n2nc(C)c(C3(O)C(=O)Nc4ccccc43)c2N)n1 (stereo not given) | inactive: 1.75%
6 | CNC(=O)N(C1=NCCCCC1)c1ccc(Br)cc1 | inconclusive: -32.4%
7 | CCOc1ccccc1N(CC(=O)NCC1CCCO1)C(=O)CCC(=O)Nc1ccccn1 (stereo not given) | inconclusive: -62.9%
8 | Cc1ccc(NC(=O)CCNC(=O)c2ccc(Cl)cc2)cc1F | inactive: 53.6%
9 | Cc1c(-c2ccco2)[n+](=O)c2c(n1[O-])CCC2 | inconclusive: -34.2%
10 | Cc1ccc(CNC(=O)C2CCC(CNc3c(N4CCOCC4)c(=O)c3=O)CC2)cc1 (stereo not given) | inactive: -21.6%
11 | CC(=O)NC(CCCN1C(=O)c2ccccc2C1=O)c1nnn(C)n1 (stereo not given) | inconclusive: -31.6%
12 | COc1ccc(N2C(=O)CCC(C(=O)N(C)C3CCCCC3)C2c2ccc(OC)c(OC)c2)cc1 (stereo not given) | inconclusive: -41.2%
13 | COc1ccc(N(CC(=O)Nc2ccc(C)cn2)S(=O)(=O)c2c(C)noc2C)cc1 | active: -80.2%
14 | CCN(CC)CCCNc1nc(-c2ccccc2)nc2ccccc12 | active: -100%
15 | O=C(c1ccc(Br)o1)N1CCN(c2ccc3nnc(-c4ccc(F)cc4)n3n2)CC1 | inactive: -22%
16 | Cc1[nH]c2ccccc2c1C(=O)CN1CCCCC1C (stereo not given) | active: -96.3%
17 | Cc1c(C(=O)NCC2COc3ccccc3O2)oc2ccc(S(=O)(=O)N3CCOCC3)cc12 (stereo not given) | inconclusive: -77.4%
18 | Cc1ccccc1NC(=O)C1CC(=O)N(c2ccc3c4c(cccc24)CC3)C1 (stereo not given) | inactive: -1.36%
19 | Cc1ccc(Cn2nc(C)c(NC(=O)c3noc4c3CCCCC4)c2C)cc1 | inconclusive: -71.8%
20 | Nc1ccc(N2CCN(C(=O)c3cccs3)CC2)cc1 | inconclusive: -37.4%
21 | O=C(Nc1cc(S(=O)(=O)N2CCOCC2)ccc1N1CCOCC1)c1cnccn1 | inconclusive: -60%
22 | N#CC(c1ccccc1)c1ccc(C(=O)c2ccc(F)cc2)cc1 (stereo not given) | inactive: 35.7%
23 | O=C(O)CCc1ccc(-c2cccs2)n1NC(=O)c1ccc(Cl)cc1Cl | inconclusive: -48.4%

Row | Structure (SMILES) | activity change (PNC), negative = inhibition
24 | COc1ccc(/C(N)=N/OC(=O)C2CCC(=O)N2S(=O)(=O)c2ccc(C)cc2)cc1 (stereo not given) | active: -89%
25 | CCC(=O)Nc1ccc(Br)c(Cl)c1 | inconclusive: -62%
26 | CCCCN(CCCC)C1=Nc2ccccc2N/C1=C(/C#N)C(=O)OCC | inconclusive: -55.6%
27 | CCn1c(-c2ccc(C)cc2)n[nH]c1=S | inactive: 10.1%
28 | CC(COc1ccccc1)N(CCCl)Cc1ccccc1 (stereo not given) | inconclusive: -70.2%
29 | O=C(Nc1sc2c(c1C(=O)O)CCC2)c1ccco1 | inactive: -24.1%
30 | CCOC(=O)C1=C(C)NC(C)=C(C(=O)OCC)C1C(=O)OCC(=O)NC(C)C | inconclusive: -36.7%
31 | COCc1cc(C)n(CC(=O)Nc2ccccc2OC)c(=O)c1C#N | inconclusive: -39.6%
32 | Cc1ccccc1C(=O)N1CCC(C(=O)Nc2ccc3c(c2)OCO3)CC1 | inactive: -29.1%
33 | CCOC(=O)c1c(-c2ccc(C)o2)csc1NC(=S)NC(=O)N(C)C | inactive: 85.5%
34 | CN1C(=S)SC(N(O)C(=O)Nc2ccccc2)C1(C)C (stereo not given) | inconclusive: -40.5%
35 | CCOC(=O)N1CCN(C(=O)N2CCOCC2)CC1 | inactive: -17.3%
36 | Cc1cc(C)n(-c2ccc(C(=O)Nc3ccccn3)cc2)n1 | inconclusive: -30.8%
37 | Cc1ccc(N2C(=O)CSCC2=O)cc1 | inconclusive: -50.4%
38 | Cn1c(=O)c2cn(Cc3ccc(Cl)cc3)cc2n(C)c1=O | inconclusive: -49.7%
39 | CCc1cccc(NC(=O)Cn2c3[n+](c4ccc(C(F)(F)F)cc42)CCCCC3)c1 | inactive: 2.36%
40 | CC1=NC(C(F)(F)F)(C(F)(F)F)C2=C(CC(C)(C)CC2=O)N1Cc1ccco1 | inconclusive: -48.5%
41 | C/C(CC(O)c1ccc2ccccc2n1)=N/O (stereo not given) | inactive: -15.2%
42 | COc1cc(C(C)=O)ccc1OCC(O)CN1CCN(S(=O)(=O)c2ccccc2)CC1 (stereo not given) | inactive: 10.7%
43 | Cc1cc(C)cc(NS(=O)(=O)c2ccc(NC(=S)Nc3ccccc3)cc2)c1 | inactive: 5.88%
44 | Cc1c(C(=O)Nc2ccccc2N2CCOCC2)sc2nc3n(c(=O)c12)CCC3 | active: -127%
45 | CCc1ccc(CN(C)CC(=O)Nc2sccc2C#N)cc1 | inconclusive: -34.6%
46 | COc1ccc(/C=N/NC(=O)CN(C2=NS(=O)(=O)c3ccccc32)c2ccccc2)cc1OC | inconclusive: -36%

Row | Structure (SMILES) | activity change (PNC), negative = inhibition
47 | Cc1ccc(C(=O)O)cc1S(=O)(=O)N1CCOCC1 | inconclusive: -59.7%
48 | CC1OC23CCCCC2C(C#N)(C(=N)O3)C1(C#N)C#N (stereo not given) | inactive: -14.9%
49 | COc1cccc(OC)c1NC(=O)C1CCCN1C(=O)NCc1ccccc1 (stereo not given) | inconclusive: -50.2%
50 | O=C(CN1CCC(n2nnc3cc(C(F)(F)F)ccc32)CC1)N1CCc2ccccc21 | inconclusive: -43.5%
51 | Cc1ccc(S(=O)(=O)NCC(=O)N(CC(=O)NCC2CCCO2)C2CCCC2)cc1 (stereo not given) | inconclusive: -74%
52 | O=C(Nc1cccc(S(=O)(=O)C(F)F)c1)c1ccc(Cl)c(S(=O)(=O)N2CCOCC2)c1 | inconclusive: -41.2%
53 | C=C(C)CNC(=S)N/N=C/c1ccc(N2CCOCC2)cc1 | inconclusive: -32.4%
54 | CC1(C)CC(=O)C2=C(C1)OC(c1ccc(O)cc1)C(C#N)=C2N (stereo not given) | inactive: -17.5%
55 | CS(=O)(=O)c1ccc(Cl)c(C(=O)O)c1 | inconclusive: -66.3%
56 | O=C(Cc1ccccc1)NNC(=O)Nc1ccc(Cl)c(Cl)c1 | inactive: -22.5%
57 | CCC1CCc2c(sc(NC(=O)c3ccco3)c2C(N)=O)C1 (stereo not given) | inconclusive: -36.4%
58 | CN1CCN(c2ccccc2NC(=O)COc2ccccc2)CC1 | inconclusive: -70.3%
59 | CCc1c(C)nc2ncnn2c1N1CCCC(C(=O)Nc2cc(F)ccc2C)C1 (stereo not given) | inconclusive: -39.7%
60 | C/C(CCc1ccccc1)=N\NC(=O)c1ccccc1 | inconclusive: -44.6%
61 | Cc1cc(S(=O)(=O)NC2CCCCC2)ccc1OCC(=O)NCc1ccccn1 | inactive: 36%
62 | Cc1cc(Nc2ccc3c(c2)OCCO3)n2ncnc2n1 | inconclusive: -78.6%
63 | CN1CCN(/C=N/c2c(C#N)cnn2C)CC1 | inconclusive: -44.6%
64 | CN1CCN(C(=O)c2ccc(-n3cccc3)cc2)CC1 | inconclusive: -31.4%
65 | CCn1nnnc1SCC(=O)N(C1CCCCC1)C1CCCCC1 | inconclusive: -44.4%
66 | COc1ccc(CCN2CC(C(=O)O)CC2=O)cc1OC (stereo not given) | inconclusive: -62.1%
67 | CCOc1ccc(C(=O)NC(=S)NC2CCCC2)cc1[N+](=O)[O-] | inconclusive: -57.9%
68 | Cc1cc(C)n(-c2nnc(C)c(=O)[nH]2)n1 | inconclusive: -54.4%
69 | Cc1oc2cc(OC(=O)c3ccco3)ccc2c(=O)c1-c1nc2ccccc2n1C | active: -92.8%

2 of these compounds, reformatted.
O=C(Cc1ccccc1)NNC(=O)Nc1ccc(Cl)c(Cl)c1
  activity change (PNC), negative = inhibition: inactive: -22.5%
C/C(CCc1ccccc1)=N\NC(=O)c1ccccc1
  activity change (PNC), negative = inhibition: inconclusive: -44.6%

(more compounds)

Row | Structure (SMILES) | activity change (PNC), negative = inhibition
70 | Cc1cc(/C=C2\SC(=Nc3ccc(F)cc3)NC2=O)c(C)n1-c1ccc(S(N)(=O)=O)cc1 | active: -99.1%
71 | COCCn1nnnc1SCC(=O)c1ccccc1 | inconclusive: -43.9%
72 | CCOC(=O)CSc1nnc(CSc2nc3sc4c(c3c(=O)[nH]2)CCCC4)n1-c1ccccc1 | inactive: 66.8%
73 | CCc1ccc(C(=O)N2CCCC2)s1 | inconclusive: -47.4%
74 | Cc1ccc(-c2nnc(SCC(=O)NC3CCCc4ccccc43)n2N)cc1 (stereo not given) | inconclusive: -35.4%
75 | COc1ccc(S(=O)(=O)N(CC(=O)N/N=C/c2cccs2)c2ccc(C)cc2)cc1OC | inconclusive: -66.1%
76 | CC1(c2ccncc2)Nc2ccccc2-c2nc3ccccc3n21 (stereo not given) | inconclusive: -55.9%
77 | C=CCn1c(SCC(=O)c2cc(C)n(CC3CCCO3)c2C)nnc1-c1ccccc1 (stereo not given) | inconclusive: -38.9%
78 | C=CCn1c(SCc2cccc(C#N)c2)nnc1-c1ccccc1O | inconclusive: -45%
79 | CC(/C=C/c1ccccc1)=N/NC(=O)c1cc([N+](=O)[O-])cc([N+](=O)[O-])c1 | inconclusive: -76.7%
80 | CCOc1ccc(NC(=O)CSc2nc3c(c(=O)n2-c2ccccc2OC)SCC3)cc1 | inconclusive: -35.6%
81 | CC(C)NCc1c(O)c(Br)cc2oc3c(c12)CCCC3 | inconclusive: -56.6%
82 | O=C(CN(C(=O)CSc1nnc(COc2ccccc2)o1)c1ccc(F)cc1)NC1CCCC1 | inconclusive: -32.7%
83 | CC1=C(C(=O)c2ccccc2)C(c2cn(-c3ccccc3)nc2-c2ccc(Cl)cc2)NC(=S)N1 (stereo not given) | inactive: -17.3%
84 | COc1cc(C(=O)NNC(=S)NC(=O)c2ccc(Cl)cc2)cc(OC)c1OC | inconclusive: -44%
85 | O=C(c1ccccc1)N1CCN(C(=O)N2CCCCC2)CC1 | inconclusive: -60.5%
86 | CCCCNC(=O)Nc1ccccc1C(=O)NCCC | active: -100%
87 | CCC1CCC(NC2CCCCNC2=O)CC1 (stereo not given) | active: -107%
88 | COc1ccc(C(CNc2ccc(S(=O)(=O)N3CCCC3)cc2[N+](=O)[O-])N2CCCC2)cc1 (stereo not given) | inconclusive: -55%
89 | CCOc1cccc(OCCCCN2CCOCC2)c1 | inactive: 15.8%
90 | CC12C=CC3(O1)C(C(=O)N(c1cccnc1)C3C(=O)NC1CCCCC1)C2C(=O)Nc1ccccc1 (stereo not given) | inconclusive: -43%

Some of these compounds in order of count of non-hydrogen atoms, smallest number first:
Row | Structure (SMILES) | activity change (PNC), negative = inhibition
73 | CCc1ccc(C(=O)N2CCCC2)s1 | inconclusive: -47.4%
68 | Cc1cc(C)n(-c2nnc(C)c(=O)[nH]2)n1 | inconclusive: -54.4%
87 | CCC1CCC(NC2CCCCNC2=O)CC1 (stereo not given) | active: -107%
71 | COCCn1nnnc1SCC(=O)c1ccccc1 | inconclusive: -43.9%
64 | CN1CCN(C(=O)c2ccc(-n3cccc3)cc2)CC1 | inconclusive: -31.4%
66 | COc1ccc(CCN2CC(C(=O)O)CC2=O)cc1OC (stereo not given) | inconclusive: -62.1%
85 | O=C(c1ccccc1)N1CCN(C(=O)N2CCCCC2)CC1 | inconclusive: -60.5%
67 | CCOc1ccc(C(=O)NC(=S)NC2CCCC2)cc1[N+](=O)[O-] | inconclusive: -57.9%
65 | CCn1nnnc1SCC(=O)N(C1CCCCC1)C1CCCCC1 | inconclusive: -44.4%
78 | C=CCn1c(SCc2cccc(C#N)c2)nnc1-c1ccccc1O | inconclusive: -45%
79 | CC(/C=C/c1ccccc1)=N/NC(=O)c1cc([N+](=O)[O-])cc([N+](=O)[O-])c1 | inconclusive: -76.7%
74 | Cc1ccc(-c2nnc(SCC(=O)NC3CCCc4ccccc43)n2N)cc1 (stereo not given) | inconclusive: -35.4%
69 | Cc1oc2cc(OC(=O)c3ccco3)ccc2c(=O)c1-c1nc2ccccc2n1C | active: -92.8%
77 | C=CCn1c(SCC(=O)c2cc(C)n(CC3CCCO3)c2C)nnc1-c1ccccc1 (stereo not given) | inconclusive: -38.9%
80 | CCOc1ccc(NC(=O)CSc2nc3c(c(=O)n2-c2ccccc2OC)SCC3)cc1 | inconclusive: -35.6%
88 | COc1ccc(C(CNc2ccc(S(=O)(=O)N3CCCC3)cc2[N+](=O)[O-])N2CCCC2)cc1 (stereo not given) | inconclusive: -55%
83 | CC1=C(C(=O)c2ccccc2)C(c2cn(-c3ccccc3)nc2-c2ccc(Cl)cc2)NC(=S)N1 (stereo not given) | inactive: -17.3%
90 | CC12C=CC3(O1)C(C(=O)N(c1cccnc1)C3C(=O)NC1CCCCC1)C2C(=O)Nc1ccccc1 (stereo not given) | inconclusive: -43%
